{"sequences": {"note": "The chains behind the UniProt entries cited, without tags or fusion partners. Residues count along the entry.", "UniProt P19438, residues 30-455": "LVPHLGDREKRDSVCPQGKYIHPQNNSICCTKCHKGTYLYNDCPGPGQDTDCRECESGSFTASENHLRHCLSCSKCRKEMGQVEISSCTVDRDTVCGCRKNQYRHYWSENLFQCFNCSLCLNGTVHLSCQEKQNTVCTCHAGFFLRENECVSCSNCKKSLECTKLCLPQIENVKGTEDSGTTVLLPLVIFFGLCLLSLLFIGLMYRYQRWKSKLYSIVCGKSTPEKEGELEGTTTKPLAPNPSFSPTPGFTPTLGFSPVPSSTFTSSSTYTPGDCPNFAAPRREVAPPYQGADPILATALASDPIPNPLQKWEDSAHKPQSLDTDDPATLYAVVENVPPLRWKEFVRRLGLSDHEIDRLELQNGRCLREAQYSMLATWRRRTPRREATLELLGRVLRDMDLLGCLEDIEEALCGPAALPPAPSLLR"}, "source": "paper PMC8934857", "binders": {"B1": {"name": "Flag-labelled ANXA1 (protein, UniProt P04083 1-346)", "chain": "MAMVSEFLKQAWFIENEEQEYVQTVKSSKGGPGSAVSPYPTFNPSSDVAALHKAIMVKGVDEATIIDILTKRNNAQRQQIKAAYLQETGKPLDETLKKALTGHLEEVVLALLKTPAQFDADELRAAMKGLGTDEDTLIEILASRTNKEIRDINRVYREELKRDLAKDITSDTSGDFRNALLSLAKGDRSEDFGVNEDLADSDARALYEAGERRKGTDVNVFNTILTTRSYPQLRRVFQKYTKYSKHDMNKVLDLELKGDIEKCLTAIVKCATSKPAFFAEKLHQAMKGVGTRHKALIRIMVSRSEIDMNDIKAFYQKMYGISLCQAILDETKGDYEKILVALCGGN"}}, "target": "HA-labelled TNFR1 (UniProt P19438)", "test": "co-IP; exogenous co-IP from lysate of HEK293T cells transfected with ANXA1-Flag and/or TNFR1-HA plasmids; precipitated with anti-Flag or anti-HA antibody, Protein A/G PLUS-Agarose; western blot", "note": "Results are given in words; binding and its absence hold for the method and conditions named. Binding seen in cells or lysates may run through a third protein. Some binding calls cover weakened binding; strength is not graded here. Sequences can lack the tags named with a protein.", "data": [{"binder": "B1", "values": [{"measurement": "binding", "value": "binds"}]}]}
